Source: the supplement of paper PMC8291772
± gives the standard error. This is one part of the list. Single values are uncertain here, since repeats match poorly.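 The library held every possible DNA sequence from one to five nucleotides long. General ability to extend was judged against a limit of the blocked-version mean plus three standard deviations, and the probe detects only chains extended by at least seven dT.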

Amino acid sequences for entries named in this document (tags omitted). A change or cut given only in a name is not applied to a line headed by its entry.
UniProt P06526: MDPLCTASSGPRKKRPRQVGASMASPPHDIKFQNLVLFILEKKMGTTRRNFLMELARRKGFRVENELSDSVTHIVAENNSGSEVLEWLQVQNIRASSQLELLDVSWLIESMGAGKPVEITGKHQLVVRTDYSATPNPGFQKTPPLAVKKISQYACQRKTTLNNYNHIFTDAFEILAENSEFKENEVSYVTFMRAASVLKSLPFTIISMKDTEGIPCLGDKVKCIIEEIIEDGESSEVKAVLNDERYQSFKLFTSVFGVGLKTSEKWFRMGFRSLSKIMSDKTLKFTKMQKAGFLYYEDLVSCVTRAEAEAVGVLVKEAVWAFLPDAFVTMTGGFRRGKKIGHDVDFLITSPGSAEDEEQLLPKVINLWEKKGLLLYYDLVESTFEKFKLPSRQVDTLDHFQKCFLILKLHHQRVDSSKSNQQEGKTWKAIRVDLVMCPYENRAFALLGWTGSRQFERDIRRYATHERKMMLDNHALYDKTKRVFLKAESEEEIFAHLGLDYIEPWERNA

These sequences were tested against terminal deoxynucleotidyl transferase (calf thymus) (UniProt P06526) (assay: TdT poly-dT extension signal (Cy3 hybridisation fluorescence, uncapped minus capped) (fluorescence a.u.); higher = more efficient initiation of TdT extension). Conditions: initiator chemistry: D-DNA, free 3'-OH (5'-tethered via HEG linker).

Sequence | TdT poly-dT extension signal
CGTG | 3380 ± 580
TGGT | 4700 ± 680
ACCCG | 3250 ± 700
CGCC | 3150 ± 370
CACA | 3950 ± 340
CGGAG | 4440 ± 470
ATCAA | 3830 ± 320
GCTTA | 4030 ± 600
CGCGA | 4280 ± 760
GGGCT | 4490 ± 350
CGCCT | 3530 ± 310
GGGGA | 4470 ± 630
CACTC | 2320 ± 260
CCGTT | 3740 ± 240
CCCAC | 3430 ± 250
TATC | 3060 ± 250
GGAAA | 5250 ± 960
AAACC | 2550 ± 300
CTCAC | 3280 ± 290
GTAAA | 3580 ± 540
ACTTC | 3260 ± 300
ATTA | 3710 ± 190
TTCAA | 3470 ± 580
GGTTG | 4050 ± 270
TTCCG | 3340 ± 460

Given as comma-separated lines: entries from further up.
Sequence,TdT poly-dT extension signal
AAACC,2550 ± 300
CTCAC,3280 ± 290
GTAAA,3580 ± 540
ACTTC,3260 ± 300

Later entries

Sequence | TdT poly-dT extension signal
TTGAT | 3950 ± 500
ATAGC | 3240 ± 470
AACG | 3070 ± 310
GGGTA | 3250 ± 590
TCACA | 3460 ± 380
ATTCA | 3470 ± 480
GATCG | 3620 ± 280
CGAGG | 4440 ± 350
TTCG | 3400 ± 330
CTTGA | 3940 ± 390
GGCTT | 3250 ± 370
ATCCA | 3740 ± 360
CAAGC | 2670 ± 390
AAGT | 3970 ± 310
GTGAA | 3510 ± 370
TACGA | 5010 ± 220
CACTT | 4810 ± 580
TAGCC | 2730 ± 300
GTCGC | 3360 ± 300
GAGG | 3570 ± 450
AACCG | 2620 ± 390
AAAA | 3730 ± 390
GCATA | 3230 ± 490
AATG | 3060 ± 340
CGTTA | 3120 ± 350

Sequence | TdT poly-dT extension signal
ATACC | 2800 ± 200
TTGCC | 3010 ± 280
CAGT | 4420 ± 220
TGCCA | 3300 ± 290
TTAT | 3430 ± 330
TGTTC | 3180 ± 320
ATGGA | 4070 ± 470
GGTTC | 3410 ± 660
TACCG | 3900 ± 840
GAATG | 4180 ± 340
CTTGG | 4560 ± 860
AGCAC | 3300 ± 300
CTAGC | 3330 ± 380
CGATT | 3030 ± 450
TACA | 3720 ± 420
GCGT | 3430 ± 390
TAATA | 3700 ± 290
ATTAA | 3950 ± 410
CTTCT | 4030 ± 270
GCGTC | 3360 ± 300
AAATT | 4040 ± 310
TATGG | 4390 ± 620
GAGAC | 3390 ± 330
